Assay results from patent US20200164046A1.
No constants are given. Whether binding was seen depends on the method and setting. In cells and extracts the contact can be indirect. Some results given as binding are weak or reduced against the parent protein; the word gives no strength.

Protein sequences, listed by entry. Tags and fused reporters are not part of them.
UniProt P31749: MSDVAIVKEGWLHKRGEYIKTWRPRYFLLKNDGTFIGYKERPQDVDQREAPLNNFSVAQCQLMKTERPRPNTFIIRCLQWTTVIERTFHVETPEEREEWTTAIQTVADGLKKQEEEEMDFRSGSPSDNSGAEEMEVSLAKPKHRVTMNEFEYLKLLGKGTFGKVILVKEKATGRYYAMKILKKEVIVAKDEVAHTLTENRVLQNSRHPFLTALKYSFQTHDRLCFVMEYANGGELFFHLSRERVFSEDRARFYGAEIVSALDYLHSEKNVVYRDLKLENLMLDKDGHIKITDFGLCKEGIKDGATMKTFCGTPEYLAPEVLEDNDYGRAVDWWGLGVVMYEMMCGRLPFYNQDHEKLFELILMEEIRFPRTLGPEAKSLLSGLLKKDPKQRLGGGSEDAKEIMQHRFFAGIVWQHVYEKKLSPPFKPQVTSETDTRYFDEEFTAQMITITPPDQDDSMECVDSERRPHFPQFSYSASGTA
UniProt Q05397: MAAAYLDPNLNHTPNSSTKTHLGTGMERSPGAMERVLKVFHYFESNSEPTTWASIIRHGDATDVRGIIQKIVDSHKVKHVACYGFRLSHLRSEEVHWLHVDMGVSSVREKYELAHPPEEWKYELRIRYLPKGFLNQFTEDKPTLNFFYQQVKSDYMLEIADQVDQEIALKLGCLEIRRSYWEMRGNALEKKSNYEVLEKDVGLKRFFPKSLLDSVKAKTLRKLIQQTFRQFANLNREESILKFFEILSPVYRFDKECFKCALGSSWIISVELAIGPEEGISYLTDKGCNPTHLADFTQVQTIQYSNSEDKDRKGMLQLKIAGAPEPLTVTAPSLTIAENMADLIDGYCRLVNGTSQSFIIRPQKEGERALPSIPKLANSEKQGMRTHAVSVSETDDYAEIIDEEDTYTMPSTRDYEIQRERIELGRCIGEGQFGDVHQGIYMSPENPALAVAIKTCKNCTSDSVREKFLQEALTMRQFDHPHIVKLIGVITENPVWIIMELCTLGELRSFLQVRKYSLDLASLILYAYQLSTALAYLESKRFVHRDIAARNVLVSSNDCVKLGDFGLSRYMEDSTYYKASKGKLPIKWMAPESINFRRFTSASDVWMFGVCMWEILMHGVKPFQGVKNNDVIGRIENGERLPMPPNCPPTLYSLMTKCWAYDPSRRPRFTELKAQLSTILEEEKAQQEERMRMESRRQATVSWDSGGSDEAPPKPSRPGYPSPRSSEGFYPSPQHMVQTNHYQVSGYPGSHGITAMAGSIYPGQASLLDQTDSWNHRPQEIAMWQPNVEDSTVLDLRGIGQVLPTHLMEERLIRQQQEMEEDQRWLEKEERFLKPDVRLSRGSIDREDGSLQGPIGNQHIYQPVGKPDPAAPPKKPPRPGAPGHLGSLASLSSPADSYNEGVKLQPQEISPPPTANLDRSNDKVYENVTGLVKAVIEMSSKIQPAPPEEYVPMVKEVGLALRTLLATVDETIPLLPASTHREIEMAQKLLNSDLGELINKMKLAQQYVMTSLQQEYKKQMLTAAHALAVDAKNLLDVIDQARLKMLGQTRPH

Key:
[1] = molecular target: Akt1 (endogenous, in lysates of human Caco-2 or SW620 colon cancer cells) (human) (UniProt P31749); test: co-immunoprecipitation with anti-HA from SW620 cells transfected with HA-FAK, western blot for Akt1
[2] = molecular target: GST-Akt1 [GST: P08515]; test: GST pull-down: GST-Akt1 on Sepharose beads, lysate of transfected Caco-2 cells, western blot for HA

Substance: HA-tagged wild type FAK (from UniProt Q05397 1-1052) (enzyme)
- binding [1]: binds
- binding [2]: binds
